This note sets out measurements from publication PMC9664729.

By UniProt entry, the sequences of proteins in these tests, tags left out.
UniProt P19474: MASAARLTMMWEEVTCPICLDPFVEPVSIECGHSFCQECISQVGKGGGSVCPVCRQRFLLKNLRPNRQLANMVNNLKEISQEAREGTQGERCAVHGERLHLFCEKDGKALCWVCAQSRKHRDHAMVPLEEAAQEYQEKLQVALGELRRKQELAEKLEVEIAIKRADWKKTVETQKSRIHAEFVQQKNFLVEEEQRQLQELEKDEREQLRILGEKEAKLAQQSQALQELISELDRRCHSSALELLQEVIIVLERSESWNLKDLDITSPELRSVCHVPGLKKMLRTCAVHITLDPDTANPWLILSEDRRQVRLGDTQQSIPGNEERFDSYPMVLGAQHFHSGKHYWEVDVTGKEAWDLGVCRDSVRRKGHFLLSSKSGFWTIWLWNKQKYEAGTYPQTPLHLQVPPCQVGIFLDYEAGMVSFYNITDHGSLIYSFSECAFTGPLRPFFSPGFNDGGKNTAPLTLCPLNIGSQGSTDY

Results are given in words; binding and its absence hold for the method and conditions named. In cells and extracts the contact can be indirect. Some entries that bind do so weakly or less than the wild type. Tags and fused reporters may be left off the sequences shown.

Assay [1] addresses T1, Elongin A (ELOA), Flag-tagged (UniProt Q14241).
T1 sequence: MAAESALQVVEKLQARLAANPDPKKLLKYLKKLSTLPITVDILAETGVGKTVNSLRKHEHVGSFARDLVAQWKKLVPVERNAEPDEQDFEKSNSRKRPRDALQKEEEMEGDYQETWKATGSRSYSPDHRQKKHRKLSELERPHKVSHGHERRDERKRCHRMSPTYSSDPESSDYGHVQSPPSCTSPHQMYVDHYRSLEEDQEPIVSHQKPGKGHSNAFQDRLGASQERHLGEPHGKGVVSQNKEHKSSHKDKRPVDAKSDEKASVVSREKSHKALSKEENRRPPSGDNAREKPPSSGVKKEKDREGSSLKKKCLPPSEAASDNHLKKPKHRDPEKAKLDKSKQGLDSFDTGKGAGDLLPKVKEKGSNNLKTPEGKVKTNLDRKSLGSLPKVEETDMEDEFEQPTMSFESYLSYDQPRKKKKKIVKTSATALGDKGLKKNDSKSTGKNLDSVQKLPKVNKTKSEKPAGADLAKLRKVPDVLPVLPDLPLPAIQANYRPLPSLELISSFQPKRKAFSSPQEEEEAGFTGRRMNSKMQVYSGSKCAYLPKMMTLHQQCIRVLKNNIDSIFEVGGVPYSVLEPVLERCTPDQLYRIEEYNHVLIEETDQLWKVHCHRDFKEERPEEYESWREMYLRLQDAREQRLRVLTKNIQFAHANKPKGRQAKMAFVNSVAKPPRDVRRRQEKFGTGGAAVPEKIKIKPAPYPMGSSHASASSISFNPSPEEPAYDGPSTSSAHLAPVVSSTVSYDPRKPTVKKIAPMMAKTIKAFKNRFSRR
In words: co-IP; indicated plasmids transfected into HCT116 cells, lysed in IP buffer with protease inhibitors, supernatants incubated with beads overnight at 4 °C, washed three times, immunoblotting; also with DLGAP1-AS2 knockdown or ectopic expression. (A western blot detects proteins with antibodies after separation by electrophoresis.)

Assay [2] concerns the target T2, cleavage stimulation factor (CSTF3), HA-tagged (UniProt Q12996).
T2 sequence: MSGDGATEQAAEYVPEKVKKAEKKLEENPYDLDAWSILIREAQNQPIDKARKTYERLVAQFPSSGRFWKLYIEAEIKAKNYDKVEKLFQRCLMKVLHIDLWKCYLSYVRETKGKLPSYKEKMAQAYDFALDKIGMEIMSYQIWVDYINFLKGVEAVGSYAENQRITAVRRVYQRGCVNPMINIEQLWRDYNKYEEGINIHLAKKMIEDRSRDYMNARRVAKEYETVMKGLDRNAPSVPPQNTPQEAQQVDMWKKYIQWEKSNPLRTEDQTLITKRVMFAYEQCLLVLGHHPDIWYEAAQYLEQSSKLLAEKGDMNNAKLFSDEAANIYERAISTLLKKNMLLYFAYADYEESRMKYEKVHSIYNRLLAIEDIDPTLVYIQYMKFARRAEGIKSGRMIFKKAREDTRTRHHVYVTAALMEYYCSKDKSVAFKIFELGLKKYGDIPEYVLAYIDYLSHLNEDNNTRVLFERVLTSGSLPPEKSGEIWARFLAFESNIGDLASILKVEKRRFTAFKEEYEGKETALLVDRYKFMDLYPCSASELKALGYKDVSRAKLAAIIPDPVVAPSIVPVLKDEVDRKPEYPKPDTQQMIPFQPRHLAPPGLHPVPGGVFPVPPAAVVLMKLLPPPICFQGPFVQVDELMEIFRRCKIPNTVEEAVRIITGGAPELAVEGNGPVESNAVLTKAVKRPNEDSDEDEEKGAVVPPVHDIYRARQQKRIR
The assay is described as above.

In the case of “tripartite motif containing 21 (Trim21), Myc-tagged (from UniProt P19474 1-475)”, the binding entry in assay [1] is “binds”.

B1: cleavage and polyadenylation specificity factor (CPSF2), Flag-tagged (protein, UniProt Q9P2I0 1-782)
chain: MTSIIKLTTLSGVQEESALCYLLQVDEFRFLLDCGWDEHFSMDIIDSLRKHVHQIDAVLLSHPDPLHLGALPYAVGKLGLNCAIYATIPVYKMGQMFMYDLYQSRHNTEDFTLFTLDDVDAAFDKIQQLKFSQIVNLKGKGHGLSITPLPAGHMIGGTIWKIVKDGEEEIVYAVDFNHKREIHLNGCSLEMLSRPSLLITDSFNATYVQPRRKQRDEQLLTNVLETLRGDGNVLIAVDTAGRVLELAQLLDQIWRTKDAGLGVYSLALLNNVSYNVVEFSKSQVEWMSDKLMRCFEDKRNNPFQFRHLSLCHGLSDLARVPSPKVVLASQPDLECGFSRDLFIQWCQDPKNSIILTYRTTPGTLARFLIDNPSEKITEIELRKRVKLEGKELEEYLEKEKLKKEAAKKLEQSKEADIDSSDESDIEEDIDQPSAHKTKHDLMMKGEGSRKGSFFKQAKKSYPMFPAPEERIKWDEYGEIIKPEDFLVPELQATEEEKSKLESGLTNGDEPMDQDLSDVPTKCISTTESIEIKARVTYIDYEGRSDGDSIKKIINQMKPRQLIIVHGPPEASQDLAECCRAFGGKDIKVYMPKLHETVDATSETHIYQVRLKDSLVSSLQFCKAKDAELAWIDGVLDMRVSKVDTGVILEEGELKDDGEDSEMQVEAPSDSSVIAQQKAMKSLFGDDEKETGEESEIIPTLEPLPPHEVPGHQSVFMNEPRLSDFKQVLLREGIQAEFVGGVLVCNNQVAVRRTETGRIGLEGCLCQDFYRIRDLLYEQYAIV
As for B1, in assay [2], the binding result is listed as “binds”.
